These are yes or no findings as the source states them, for the method shown. Some entries that bind do so weakly or less than the wild type.

By UniProt entry, the sequences of proteins in these tests, tags left out. Where a name states a change or a piece, a line headed by the entry shows the natural chain unless it says otherwise. Chains listed by the source or under a name are the forms on record and can include a tag or linker.
cynomolgus monkey IL-17A (A0A2K5TTB0, form named): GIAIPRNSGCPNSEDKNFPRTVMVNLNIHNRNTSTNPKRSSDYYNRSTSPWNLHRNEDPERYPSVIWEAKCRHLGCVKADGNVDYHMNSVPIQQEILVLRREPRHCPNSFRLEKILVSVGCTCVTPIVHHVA

2 substances from US20200377563A1 can be followed below.

The experiment concerns the target lipocalin mutein of SEQ ID NO: 1. Briefly: solution competition ELISA: fixed SEQ ID NO: 1 pre-incubated with titrated ligand, free SEQ ID NO: 1 captured on immobilised biotinylated hIL-17A. A general note: An ELISA detects its analyte on a solid surface through an enzyme-linked reagent.

In the case of “marmoset IL-17A (from UniProt A0ACM8QD00 24-153) (ligand)”, the binding entry is on record as “binds”. Next, “cynomolgus monkey IL-17A (from UniProt A0A2K5TTB0 24-155) (ligand)”: “binds”.
